Measurements published in the supplement of paper PMC11006884.
The list shows a part of the results, in another mix than the full data.

By UniProt entry, the sequences of proteins in these tests, tags left out. Where a name states a change or a piece, a line headed by the entry shows the natural chain unless it says otherwise.
UniProt P84077: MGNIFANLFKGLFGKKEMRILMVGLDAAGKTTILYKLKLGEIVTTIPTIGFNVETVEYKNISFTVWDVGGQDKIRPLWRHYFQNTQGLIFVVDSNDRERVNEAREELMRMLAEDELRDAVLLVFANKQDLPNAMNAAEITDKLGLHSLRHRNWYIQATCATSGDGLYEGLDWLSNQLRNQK
UniProt P63104: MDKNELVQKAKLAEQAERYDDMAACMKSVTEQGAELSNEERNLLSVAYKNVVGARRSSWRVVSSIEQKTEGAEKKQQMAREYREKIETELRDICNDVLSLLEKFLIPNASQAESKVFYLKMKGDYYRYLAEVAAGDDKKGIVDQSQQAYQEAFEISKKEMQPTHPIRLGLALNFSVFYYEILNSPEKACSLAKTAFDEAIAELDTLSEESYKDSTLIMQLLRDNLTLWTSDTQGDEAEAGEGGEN
UniProt P78527, whole entry, looked up: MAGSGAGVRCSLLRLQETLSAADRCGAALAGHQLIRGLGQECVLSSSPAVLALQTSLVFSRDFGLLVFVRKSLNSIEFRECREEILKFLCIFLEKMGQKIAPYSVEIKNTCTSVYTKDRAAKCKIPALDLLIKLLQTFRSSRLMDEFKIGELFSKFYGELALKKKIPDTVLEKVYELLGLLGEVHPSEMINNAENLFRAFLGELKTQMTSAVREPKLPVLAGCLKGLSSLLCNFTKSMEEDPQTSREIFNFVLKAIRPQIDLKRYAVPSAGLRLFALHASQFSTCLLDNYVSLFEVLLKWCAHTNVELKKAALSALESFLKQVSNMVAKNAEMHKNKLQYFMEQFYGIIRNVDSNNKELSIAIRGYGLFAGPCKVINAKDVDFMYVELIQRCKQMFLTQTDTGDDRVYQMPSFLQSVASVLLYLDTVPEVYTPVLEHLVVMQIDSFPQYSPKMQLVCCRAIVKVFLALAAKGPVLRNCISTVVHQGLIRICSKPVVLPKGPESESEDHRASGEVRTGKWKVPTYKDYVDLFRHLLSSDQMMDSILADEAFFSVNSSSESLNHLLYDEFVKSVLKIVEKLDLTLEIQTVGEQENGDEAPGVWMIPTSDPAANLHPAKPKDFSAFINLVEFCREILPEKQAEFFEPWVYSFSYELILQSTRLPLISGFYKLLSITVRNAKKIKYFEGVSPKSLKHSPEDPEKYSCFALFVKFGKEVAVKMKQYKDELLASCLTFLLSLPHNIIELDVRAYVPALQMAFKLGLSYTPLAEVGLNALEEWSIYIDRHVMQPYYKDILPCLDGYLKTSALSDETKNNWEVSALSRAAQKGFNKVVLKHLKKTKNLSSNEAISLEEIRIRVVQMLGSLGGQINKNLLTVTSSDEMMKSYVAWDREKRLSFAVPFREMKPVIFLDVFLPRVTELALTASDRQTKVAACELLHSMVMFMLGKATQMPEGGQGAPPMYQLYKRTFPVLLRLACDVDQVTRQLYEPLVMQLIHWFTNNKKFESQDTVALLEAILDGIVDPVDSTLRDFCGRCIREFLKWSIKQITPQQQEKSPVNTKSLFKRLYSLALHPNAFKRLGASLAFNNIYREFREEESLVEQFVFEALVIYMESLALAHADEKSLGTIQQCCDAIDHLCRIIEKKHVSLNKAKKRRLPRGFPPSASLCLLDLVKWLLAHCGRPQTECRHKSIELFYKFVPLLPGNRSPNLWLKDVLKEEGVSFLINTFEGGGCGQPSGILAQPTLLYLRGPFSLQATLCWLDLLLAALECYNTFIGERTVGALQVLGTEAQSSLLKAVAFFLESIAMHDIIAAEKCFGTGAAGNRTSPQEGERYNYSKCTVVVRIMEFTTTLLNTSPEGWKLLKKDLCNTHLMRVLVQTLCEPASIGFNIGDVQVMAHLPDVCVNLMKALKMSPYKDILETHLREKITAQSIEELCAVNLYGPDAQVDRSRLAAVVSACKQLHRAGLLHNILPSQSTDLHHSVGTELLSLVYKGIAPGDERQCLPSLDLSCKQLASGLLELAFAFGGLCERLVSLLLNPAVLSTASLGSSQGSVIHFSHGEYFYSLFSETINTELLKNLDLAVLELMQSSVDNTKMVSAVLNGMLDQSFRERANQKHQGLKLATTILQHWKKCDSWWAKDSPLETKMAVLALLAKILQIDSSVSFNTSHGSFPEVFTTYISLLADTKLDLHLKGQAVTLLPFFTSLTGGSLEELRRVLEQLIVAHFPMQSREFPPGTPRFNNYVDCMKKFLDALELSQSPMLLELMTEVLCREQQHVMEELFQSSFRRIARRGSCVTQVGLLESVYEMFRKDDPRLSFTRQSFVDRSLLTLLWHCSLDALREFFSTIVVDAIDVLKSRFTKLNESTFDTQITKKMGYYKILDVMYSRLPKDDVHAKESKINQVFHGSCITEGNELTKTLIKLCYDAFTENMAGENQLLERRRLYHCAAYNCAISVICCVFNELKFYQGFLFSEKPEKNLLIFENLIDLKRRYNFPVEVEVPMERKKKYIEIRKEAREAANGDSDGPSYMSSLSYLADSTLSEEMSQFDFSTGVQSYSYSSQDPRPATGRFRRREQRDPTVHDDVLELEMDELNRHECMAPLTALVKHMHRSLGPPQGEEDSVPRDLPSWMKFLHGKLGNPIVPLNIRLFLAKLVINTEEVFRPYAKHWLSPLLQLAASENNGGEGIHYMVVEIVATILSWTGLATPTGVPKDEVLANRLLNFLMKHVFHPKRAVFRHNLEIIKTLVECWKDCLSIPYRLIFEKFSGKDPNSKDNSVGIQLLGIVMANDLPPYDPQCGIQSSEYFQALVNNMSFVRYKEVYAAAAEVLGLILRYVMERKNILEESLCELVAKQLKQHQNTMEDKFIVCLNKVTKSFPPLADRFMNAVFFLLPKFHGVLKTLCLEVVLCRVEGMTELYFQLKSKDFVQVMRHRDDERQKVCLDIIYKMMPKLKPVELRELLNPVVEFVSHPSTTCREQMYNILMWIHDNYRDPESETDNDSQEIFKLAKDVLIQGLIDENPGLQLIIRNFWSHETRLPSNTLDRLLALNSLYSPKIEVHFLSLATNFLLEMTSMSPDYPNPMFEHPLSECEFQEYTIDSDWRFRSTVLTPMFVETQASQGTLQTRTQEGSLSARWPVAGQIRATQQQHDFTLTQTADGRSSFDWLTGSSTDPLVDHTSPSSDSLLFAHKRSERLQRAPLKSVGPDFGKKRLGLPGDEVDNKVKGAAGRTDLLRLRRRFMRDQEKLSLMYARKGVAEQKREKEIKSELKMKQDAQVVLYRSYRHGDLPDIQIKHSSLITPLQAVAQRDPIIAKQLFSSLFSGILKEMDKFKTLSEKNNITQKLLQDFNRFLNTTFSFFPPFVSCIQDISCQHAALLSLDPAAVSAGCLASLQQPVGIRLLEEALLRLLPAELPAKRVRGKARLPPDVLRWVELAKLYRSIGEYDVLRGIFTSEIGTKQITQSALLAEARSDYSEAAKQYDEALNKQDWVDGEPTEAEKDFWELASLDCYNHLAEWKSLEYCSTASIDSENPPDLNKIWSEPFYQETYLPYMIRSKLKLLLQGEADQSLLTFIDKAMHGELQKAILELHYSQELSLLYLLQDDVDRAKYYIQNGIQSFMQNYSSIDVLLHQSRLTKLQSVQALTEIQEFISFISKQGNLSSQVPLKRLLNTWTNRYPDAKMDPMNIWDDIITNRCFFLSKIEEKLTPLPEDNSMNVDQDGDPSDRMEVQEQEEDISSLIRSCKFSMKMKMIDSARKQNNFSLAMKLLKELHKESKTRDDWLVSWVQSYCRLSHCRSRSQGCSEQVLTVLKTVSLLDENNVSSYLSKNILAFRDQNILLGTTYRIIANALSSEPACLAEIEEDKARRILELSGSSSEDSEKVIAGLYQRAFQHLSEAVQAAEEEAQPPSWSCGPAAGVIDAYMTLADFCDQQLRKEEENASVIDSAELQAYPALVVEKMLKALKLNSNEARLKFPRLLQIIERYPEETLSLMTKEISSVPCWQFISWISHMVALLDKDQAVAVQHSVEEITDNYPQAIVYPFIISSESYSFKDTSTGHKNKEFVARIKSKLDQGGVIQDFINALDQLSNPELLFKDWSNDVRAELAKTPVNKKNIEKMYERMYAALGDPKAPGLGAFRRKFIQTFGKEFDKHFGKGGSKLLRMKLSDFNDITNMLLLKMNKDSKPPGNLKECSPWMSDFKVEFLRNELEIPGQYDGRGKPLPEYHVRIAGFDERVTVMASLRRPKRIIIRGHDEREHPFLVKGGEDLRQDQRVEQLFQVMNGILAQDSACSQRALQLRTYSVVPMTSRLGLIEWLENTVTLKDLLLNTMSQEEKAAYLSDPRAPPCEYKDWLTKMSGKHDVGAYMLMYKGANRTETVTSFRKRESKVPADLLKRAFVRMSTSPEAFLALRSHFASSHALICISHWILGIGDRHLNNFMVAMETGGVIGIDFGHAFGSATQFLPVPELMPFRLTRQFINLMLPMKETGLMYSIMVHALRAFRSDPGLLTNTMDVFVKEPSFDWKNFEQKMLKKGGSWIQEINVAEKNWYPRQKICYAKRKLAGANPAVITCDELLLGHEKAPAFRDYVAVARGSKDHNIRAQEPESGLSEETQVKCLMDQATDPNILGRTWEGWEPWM
UniProt P84085: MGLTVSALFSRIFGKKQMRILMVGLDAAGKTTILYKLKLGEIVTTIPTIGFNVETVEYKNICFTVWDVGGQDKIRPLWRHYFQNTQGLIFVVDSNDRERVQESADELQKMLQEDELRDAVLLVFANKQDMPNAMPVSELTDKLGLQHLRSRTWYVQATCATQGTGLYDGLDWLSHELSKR
UniProt Q00796: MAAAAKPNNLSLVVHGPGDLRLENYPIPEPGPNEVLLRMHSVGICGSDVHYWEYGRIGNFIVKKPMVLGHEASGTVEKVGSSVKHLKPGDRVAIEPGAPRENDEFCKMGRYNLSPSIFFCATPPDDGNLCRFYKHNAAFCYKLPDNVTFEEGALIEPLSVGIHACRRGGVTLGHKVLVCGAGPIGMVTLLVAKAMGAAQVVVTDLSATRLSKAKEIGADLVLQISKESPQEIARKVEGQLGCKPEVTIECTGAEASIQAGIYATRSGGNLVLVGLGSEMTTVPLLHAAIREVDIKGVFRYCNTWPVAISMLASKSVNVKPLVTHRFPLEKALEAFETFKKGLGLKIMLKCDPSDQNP
UniProt P63241: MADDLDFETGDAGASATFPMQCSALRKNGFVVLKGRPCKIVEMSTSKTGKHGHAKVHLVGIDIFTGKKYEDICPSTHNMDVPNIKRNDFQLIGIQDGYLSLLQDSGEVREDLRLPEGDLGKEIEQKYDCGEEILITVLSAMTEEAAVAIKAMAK
UniProt P67936, whole entry, looked up: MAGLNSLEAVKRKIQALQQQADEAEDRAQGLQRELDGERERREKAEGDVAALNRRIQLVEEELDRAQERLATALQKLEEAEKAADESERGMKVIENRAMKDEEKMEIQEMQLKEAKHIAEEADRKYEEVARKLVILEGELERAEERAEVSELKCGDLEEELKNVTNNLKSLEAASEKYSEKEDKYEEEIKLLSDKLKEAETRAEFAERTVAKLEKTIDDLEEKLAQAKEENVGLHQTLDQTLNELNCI
UniProt Q01831: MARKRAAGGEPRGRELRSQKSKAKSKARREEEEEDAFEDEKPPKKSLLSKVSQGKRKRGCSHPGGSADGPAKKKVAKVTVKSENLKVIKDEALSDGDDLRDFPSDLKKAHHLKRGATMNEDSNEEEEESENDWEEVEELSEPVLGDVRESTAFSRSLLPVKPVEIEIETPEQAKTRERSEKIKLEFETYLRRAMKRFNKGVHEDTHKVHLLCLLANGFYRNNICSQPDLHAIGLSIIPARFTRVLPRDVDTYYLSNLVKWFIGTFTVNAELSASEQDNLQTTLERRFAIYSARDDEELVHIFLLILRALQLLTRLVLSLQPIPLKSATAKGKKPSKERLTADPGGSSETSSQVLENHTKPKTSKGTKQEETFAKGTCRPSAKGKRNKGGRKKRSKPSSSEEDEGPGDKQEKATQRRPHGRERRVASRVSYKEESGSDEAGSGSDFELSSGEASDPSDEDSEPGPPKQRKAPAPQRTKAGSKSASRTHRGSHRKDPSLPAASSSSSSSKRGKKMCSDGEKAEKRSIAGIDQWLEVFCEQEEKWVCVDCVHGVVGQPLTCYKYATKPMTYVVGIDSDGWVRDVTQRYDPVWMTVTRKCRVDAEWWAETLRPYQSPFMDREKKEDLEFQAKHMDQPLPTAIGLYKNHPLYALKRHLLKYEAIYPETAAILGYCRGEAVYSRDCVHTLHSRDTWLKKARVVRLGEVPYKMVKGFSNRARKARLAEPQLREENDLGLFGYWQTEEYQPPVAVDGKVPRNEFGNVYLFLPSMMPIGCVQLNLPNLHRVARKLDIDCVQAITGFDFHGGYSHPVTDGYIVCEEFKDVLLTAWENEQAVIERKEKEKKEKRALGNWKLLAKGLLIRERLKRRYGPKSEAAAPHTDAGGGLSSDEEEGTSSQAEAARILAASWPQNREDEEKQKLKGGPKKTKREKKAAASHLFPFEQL
UniProt P62316, whole entry, looked up: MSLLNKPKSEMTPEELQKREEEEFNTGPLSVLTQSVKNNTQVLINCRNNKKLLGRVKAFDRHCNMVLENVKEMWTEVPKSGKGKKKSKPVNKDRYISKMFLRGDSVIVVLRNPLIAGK

Compound: COC(=O)C#Cc1ccccc1 [methyl 3-phenylpropiolate]
Experiment: log2 ratio of iodoacetamide-alkyne labeling of the cysteine site, DMSO over compound (competition); higher = stronger covalent engagement of the cysteine by the compound, active = 1 or more
Details: 500 µM; treatment time 1 h; system: HEK293T cell lysate
Procedure, shortened: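 Reporter intensities give each cysteine's log2 competition ratio as the mean of control channels over the mean of compound channels. The samples were HEK293T lysate (2 mg/mL) given vehicle or electrophile (500 µM, 1 h, ambient temperature), then iodoacetamide alkyne (1 h), followed by click coupling to sCIP-TMT reagents, pooling, trypsin digestion overnight at 37 °C, streptavidin enrichment, acid elution, Orbitrap Eclipse LC-MS/MS with FAIMS and FragPipe quantification. Duplicate channels and three replicates were run, and cysteines quantified in only one replicate were discarded.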

| Target | log2 ratio of iodoacetamide-alkyne labeling |
| --- | --- |
| UniProt P84095_C157 | inactive: 0.279 |
| RPL10A C74 (UniProt P62906) | inactive: -0.0195 |
| UniProt P84077_C159 | inactive: -0.0511 |
| YWHAZ C94 (UniProt P63104) | inactive: 0.0183 |
| PURA C272 (UniProt Q00577) | inactive: 0.234 |
| UniProt P78527_C1455 | inactive: 0.0695 |
| UniProt P84085_C62 | inactive: -0.062 |
| UniProt P62857_C27 | inactive: 0.487 |
| RPS27A C126 (UniProt P62979) | inactive: 0.124 |
| UniProt P62829_C125 | inactive: 0.485 |
| UniProt P63244_C240 | inactive: 0.159 |
| SORD C301 (UniProt Q00796) | inactive: 0.296 |
| UniProt P63244_C182 | inactive: 0.268 |
| UniProt P78527_C2342 | inactive: 0.391 |
| SORD C130 (UniProt Q00796) | inactive: 0.000899 |
| UniProt P63241_C129 | inactive: -0.068 |
| PFKP C360 (UniProt Q01813) | inactive: 0.656 |
| UniProt P62701_C41 | inactive: -0.0444 |
| UniProt P63244_C207 | inactive: 0.273 |
| TPM4 C154 (UniProt P67936) | inactive: 0.119 |
| XPC C224 (UniProt Q01831) | inactive: 0.578 |
| UniProt P62316_C63 | inactive: 0.416 |
| XPC C60 (UniProt Q01831) | inactive: 0.493 |
| UniProt P62917_C90 | inactive: -0.176 |

Another view of part of the listing above:
Target | log2 ratio of iodoacetamide-alkyne labeling
UniProt P84077_C159 | inactive: -0.0511
YWHAZ C94 (UniProt P63104) | inactive: 0.0183
PURA C272 (UniProt Q00577) | inactive: 0.234
UniProt P84085_C62 | inactive: -0.062
XPC C60 (UniProt Q01831) | inactive: 0.493
